Reference: patent US4599198 (dated 1986)

Assay: general procedure: solution-phase peptide synthesis; dicyclohexylcarbodiimide / 1-hydroxybenzotriazole hydrate

Row | Substance | step yield (coupling step) | step yield (purification step, of crude material injected)
1 | BocPhe(N-imBoc)His-2-N-i-propylazahomocyclohexylStaLys(e-CBZ)Phe benzyl ester | 51% | –
2 | BocPhe-N-methylHis-2-N-i-butylazahomocyclohexylStaLysPheNH2 | – | Approximately 30%
3 | BocPheHis(imBoc)-O-benzyl-2-oxahomocyclohexylStaLys(e-CBZ)Phe benzyl ester | 69% | –
